{"sequences": {"note": "The chains behind the UniProt entries cited, without tags or fusion partners. Where a name states a change or a piece, a line headed by the entry shows the natural chain unless it says otherwise.", "UniProt Q09472": "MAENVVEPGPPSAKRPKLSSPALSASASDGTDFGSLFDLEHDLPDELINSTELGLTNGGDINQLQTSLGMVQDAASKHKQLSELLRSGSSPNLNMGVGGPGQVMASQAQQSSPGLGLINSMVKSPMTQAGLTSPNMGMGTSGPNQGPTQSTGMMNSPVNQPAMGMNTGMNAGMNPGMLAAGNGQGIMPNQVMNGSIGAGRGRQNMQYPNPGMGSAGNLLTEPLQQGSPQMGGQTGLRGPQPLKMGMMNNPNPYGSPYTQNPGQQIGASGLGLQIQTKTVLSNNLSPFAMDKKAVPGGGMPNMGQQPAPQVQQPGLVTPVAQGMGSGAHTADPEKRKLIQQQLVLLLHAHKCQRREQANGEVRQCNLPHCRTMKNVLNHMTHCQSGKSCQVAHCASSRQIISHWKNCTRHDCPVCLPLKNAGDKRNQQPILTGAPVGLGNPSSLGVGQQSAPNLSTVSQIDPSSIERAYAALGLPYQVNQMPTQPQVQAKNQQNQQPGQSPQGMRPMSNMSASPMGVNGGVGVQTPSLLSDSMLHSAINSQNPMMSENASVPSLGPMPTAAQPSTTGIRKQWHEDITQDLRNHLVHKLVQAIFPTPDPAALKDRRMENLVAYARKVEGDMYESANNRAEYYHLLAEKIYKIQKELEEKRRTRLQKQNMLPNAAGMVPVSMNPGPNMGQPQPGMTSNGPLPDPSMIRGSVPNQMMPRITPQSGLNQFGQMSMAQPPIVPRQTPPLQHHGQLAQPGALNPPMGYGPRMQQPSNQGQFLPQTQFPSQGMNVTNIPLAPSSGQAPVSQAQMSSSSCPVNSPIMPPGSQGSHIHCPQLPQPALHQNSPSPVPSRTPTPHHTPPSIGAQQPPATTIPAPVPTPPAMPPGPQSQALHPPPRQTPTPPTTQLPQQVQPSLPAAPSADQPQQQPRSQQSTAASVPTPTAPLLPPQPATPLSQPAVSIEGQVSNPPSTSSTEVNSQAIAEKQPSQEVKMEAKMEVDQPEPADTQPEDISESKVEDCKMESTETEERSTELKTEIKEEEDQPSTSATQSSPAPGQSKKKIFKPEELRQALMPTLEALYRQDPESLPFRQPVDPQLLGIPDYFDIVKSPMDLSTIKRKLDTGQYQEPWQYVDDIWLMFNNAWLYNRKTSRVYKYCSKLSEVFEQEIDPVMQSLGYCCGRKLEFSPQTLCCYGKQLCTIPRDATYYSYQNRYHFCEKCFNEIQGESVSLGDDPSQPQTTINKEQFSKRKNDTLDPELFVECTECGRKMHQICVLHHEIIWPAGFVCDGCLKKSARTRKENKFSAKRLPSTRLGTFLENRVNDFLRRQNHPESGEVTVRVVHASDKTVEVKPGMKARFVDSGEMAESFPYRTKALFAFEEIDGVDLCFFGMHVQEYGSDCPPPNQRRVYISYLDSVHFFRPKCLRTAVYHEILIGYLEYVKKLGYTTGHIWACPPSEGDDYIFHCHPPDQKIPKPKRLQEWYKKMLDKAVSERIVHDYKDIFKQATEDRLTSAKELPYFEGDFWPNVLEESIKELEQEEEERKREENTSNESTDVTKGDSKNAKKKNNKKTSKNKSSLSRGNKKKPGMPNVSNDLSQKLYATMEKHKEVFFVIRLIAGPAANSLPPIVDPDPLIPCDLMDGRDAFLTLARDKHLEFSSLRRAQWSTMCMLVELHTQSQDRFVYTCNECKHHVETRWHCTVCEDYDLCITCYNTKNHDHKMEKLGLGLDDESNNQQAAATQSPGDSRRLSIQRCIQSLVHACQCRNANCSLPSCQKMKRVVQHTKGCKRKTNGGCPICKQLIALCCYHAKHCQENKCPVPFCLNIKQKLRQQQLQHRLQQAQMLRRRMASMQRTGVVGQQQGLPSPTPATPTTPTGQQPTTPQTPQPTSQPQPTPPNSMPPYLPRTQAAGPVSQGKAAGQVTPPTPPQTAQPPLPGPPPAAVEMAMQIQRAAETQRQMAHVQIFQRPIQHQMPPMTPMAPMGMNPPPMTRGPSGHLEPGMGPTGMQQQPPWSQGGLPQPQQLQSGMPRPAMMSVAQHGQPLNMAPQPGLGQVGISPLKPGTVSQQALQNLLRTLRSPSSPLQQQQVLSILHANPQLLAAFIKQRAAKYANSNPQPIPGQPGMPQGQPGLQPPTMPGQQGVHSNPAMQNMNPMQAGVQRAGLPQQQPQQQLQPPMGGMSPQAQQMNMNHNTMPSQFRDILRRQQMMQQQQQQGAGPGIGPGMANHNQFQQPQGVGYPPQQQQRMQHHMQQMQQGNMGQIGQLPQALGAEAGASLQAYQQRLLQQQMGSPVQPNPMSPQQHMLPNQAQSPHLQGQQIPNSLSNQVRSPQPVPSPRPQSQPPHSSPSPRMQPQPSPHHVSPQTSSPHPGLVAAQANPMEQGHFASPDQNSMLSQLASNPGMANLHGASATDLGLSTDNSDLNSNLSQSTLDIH"}, "source": "paper PMC12432198", "molecules": {"B1": {"name": "endogenous SIRT2 (NAD-dependent deacetylase Sirtuin-2) (enzyme, UniProt Q8IXJ6 1-389)", "chain": "MAEPDPSHPLETQAGKVQEAQDSDSDSEGGAAGGEADMDFLRNLFSQTLSLGSQKERLLDELTLEGVARYMQSERCRRVICLVGAGISTSAGIPDFRSPSTGLYDNLEKYHLPYPEAIFEISYFKKHPEPFFALAKELYPGQFKPTICHYFMRLLKDKGLLLRCYTQNIDTLERIAGLEQEDLVEAHGTFYTSHCVSASCRHEYPLSWMKEKIFSEVTPKCEDCQSLVKPDIVFFGESLPARFFSCMQSDFLKVDLLLVMGTSLQVQPFASLISKAPLSTPRLLINKEKAGQSDPFLGMIMGLGGGMDFDSKKAYRDVAWLGECDQGCLALAELLGWKKELEDLVRREHASIDAQSGAGVPNPSTSASPKKSPPPAKDEARTTEREKPQ"}, "B2": {"name": "endogenous GCLC (glutamate-cysteine ligase catalytic subunit) (enzyme, UniProt P48506 1-637)", "chain": "MGLLSQGSPLSWEETKRHADHVRRHGILQFLHIYHAVKDRHKDVLKWGDEVEYMLVSFDHENKKVRLVLSGEKVLETLQEKGERTNPNHPTLWRPEYGSYMIEGTPGQPYGGTMSEFNTVEANMRKRRKEATSILEENQALCTITSFPRLGCPGFTLPEVKPNPVEGGASKSLFFPDEAINKHPRFSTLTRNIRHRRGEKVVINVPIFKDKNTPSPFIETFTEDDEASRASKPDHIYMDAMGFGMGNCCLQVTFQACSISEARYLYDQLATICPIVMALSAASPFYRGYVSDIDCRWGVISASVDDRTREERGLEPLKNNNYRISKSRYDSIDSYLSKCGEKYNDIDLTIDKEIYEQLLQEGIDHLLAQHVAHLFIRDPLTLFEEKIHLDDANESDHFENIQSTNWQTMRFKPPPPNSDIGWRVEFRPMEVQLTDFENSAYVVFVVLLTRVILSYKLDFLIPLSKVDENMKVAQKRDAVLQGMFYFRKDICKGGNAVVDGCGKAQNSTELAAEEYTLMSIDTIINGKEGVFPGLIPILNSYLENMEVDVDTRCSILNYLKLIKKRASGELMTVARWMREFIANHPDYKQDSVITDEMNYSLILKCNQIANELCECPELLGSAFRKVKYSGSKTDSSN"}, "B3": {"name": "His-SIRT2 (enzyme, UniProt Q8IXJ6 1-389)", "chain": "B1 chain"}}, "key": {"[1]": {"target": "T1, GCLC (bait of the GCLC-pull down complex, Fig. S6C) (human) (UniProt P48506)", "T1 sequence": "B2 chain", "assay": "co-IP; GCLC-pull down complex, blot for P300 (Fig. S6C)"}, "[2]": {"target": "T2, endogenous GCLC (glutamate-cysteine ligase catalytic subunit) (human (endogenous in HEK293T)) (UniProt P48506)", "T2 sequence": "B2 chain", "assay": "co-IP; HEK293T whole cell lysates, anti-GCLC antibody or control IgG, blot for endogenous SIRT2; IP buffer (50 mM Tris-HCl pH 7.5, 0.5% NP-40, 150 mM NaCl, 5 mM EDTA, 10% glycerin)"}, "[3]": {"target": "T3, Flag-GCLC (Flag-tagged glutamate-cysteine ligase catalytic subunit) (human) (UniProt P48506)", "T3 sequence": "B2 chain", "assay": "co-IP; lysates of cells expressing the Flag-tagged bait, Flag-M2 beads overnight at 4 °C, IP buffer (50 mM Tris-HCl pH 7.5, 0.5% NP-40, 150 mM NaCl, 5 mM EDTA, 10% glycerin), blot for the endogenous partner; Flag-SIRT2 also after TBH (different concentrations 12 h; 700 μM for different times), which increased the co-precipitated GCLC"}, "Flag-SIRT2 (human)": {"target": "T4, Flag-SIRT2 (human) (UniProt Q8IXJ6)", "T4 sequence": "B1 chain", "assay": "co-IP; lysates of cells expressing the Flag-tagged bait, Flag-M2 beads overnight at 4 °C, IP buffer (50 mM Tris-HCl pH 7.5, 0.5% NP-40, 150 mM NaCl, 5 mM EDTA, 10% glycerin), blot for the endogenous partner; Flag-SIRT2 also after TBH (different concentrations 12 h; 700 μM for different times), which increased the co-precipitated GCLC"}, "HA-P300": {"target": "HA-P300 (UniProt Q09472)", "assay": "co-IP; HA-P300 pull-down complex, blot with anti-GCLC antibody; also HEK293T transfected with HA-P300 for 24 h and treated with 700 μM TBH for 12 h, which substantially decreased the association"}, "GST-GCLC (human)": {"target": "T5, GST-GCLC (human) (UniProt P48506)", "T5 sequence": "B2 chain", "assay": "pull-down; GST-tagged proteins immobilised on GSH sepharose 4B at 4 °C overnight, incubated with His-SIRT2 at 4 °C for 4 h, washed three times with lysis buffer, western blot; both purified"}}, "note": "No constants are given. Whether binding was seen depends on the method and setting. For part of these data: Binding seen in cells or lysates may run through a third protein. Some entries that bind do so weakly or less than the wild type. For part of these data: Where a sequence is shown, tags or fusion partners need not be part of it.", "data": [{"molecule": "P300 (found in the GCLC-pull down complex, Fig. S6C) (from UniProt Q09472 1-2414) (enzyme)", "values": [{"measurement": "binding", "setting": "[1]", "result": "binds"}]}, {"molecule": "B1", "values": [{"measurement": "binding", "setting": "[2]", "result": "binds"}, {"measurement": "binding", "setting": "[3]", "result": "binds"}]}, {"molecule": "B2", "values": [{"measurement": "binding", "setting": "Flag-SIRT2 (human)", "result": "binds"}, {"measurement": "binding", "setting": "HA-P300", "result": "binds"}]}, {"molecule": "B3", "values": [{"measurement": "binding", "setting": "GST-GCLC (human)", "result": "binds"}]}]}
